In patent US20210085721A1:
Results are given in words; binding and its absence hold for the method and conditions named. Some entries that bind do so weakly or less than the wild type.

The chains behind the UniProt entries cited, without tags or fusion partners. Where a name states a change or a piece, a line headed by the entry shows the natural chain unless it says otherwise. Residues count along the entry.
UniProt P06239, residues 2-509: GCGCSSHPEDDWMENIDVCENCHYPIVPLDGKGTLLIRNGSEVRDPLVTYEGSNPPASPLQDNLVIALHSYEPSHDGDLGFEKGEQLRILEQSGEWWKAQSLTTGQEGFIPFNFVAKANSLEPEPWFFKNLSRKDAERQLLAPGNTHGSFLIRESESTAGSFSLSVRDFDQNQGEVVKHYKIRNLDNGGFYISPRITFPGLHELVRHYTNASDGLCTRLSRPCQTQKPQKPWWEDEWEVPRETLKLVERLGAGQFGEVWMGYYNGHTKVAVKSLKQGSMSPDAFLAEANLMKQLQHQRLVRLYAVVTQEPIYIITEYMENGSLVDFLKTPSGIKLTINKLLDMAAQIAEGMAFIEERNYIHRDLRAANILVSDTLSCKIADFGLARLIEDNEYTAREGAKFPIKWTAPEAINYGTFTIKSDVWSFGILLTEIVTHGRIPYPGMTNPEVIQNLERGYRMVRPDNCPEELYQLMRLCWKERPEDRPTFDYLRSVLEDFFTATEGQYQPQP
UniProt P01732: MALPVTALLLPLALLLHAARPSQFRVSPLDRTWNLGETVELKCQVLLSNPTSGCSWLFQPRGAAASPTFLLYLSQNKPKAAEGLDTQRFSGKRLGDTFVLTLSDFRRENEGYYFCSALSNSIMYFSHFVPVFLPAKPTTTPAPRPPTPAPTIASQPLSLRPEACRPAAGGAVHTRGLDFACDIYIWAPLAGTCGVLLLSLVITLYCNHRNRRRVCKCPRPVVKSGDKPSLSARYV

What was measured:
LCK [1] = biological target: LCK (UniProt P06239); experiment: method not described; rank order of LCK affinity among CD8 Products 1-4
LCK [2] = biological target: LCK (UniProt P06239); experiment: method not described; rank order of LCK affinity among CD8 Products 1-4 (second highest)
LCK [3] = biological target: LCK (UniProt P06239); experiment: method not described; rank order of LCK affinity among CD8 Products 1-4 (second lowest)

Substance: CD8α homodimer (exogenous CD8 of CD8 Construct 1 / CD8 Product 1) (from UniProt P01732 22-235) (receptor)
- binding (LCK [1]): binds

Substance: CD8α with CD8β intracellular domain (exogenous CD8 of CD8 Construct 3 / CD8 Product 3) (from UniProt P01732 22-203) (receptor)
- binding (LCK [2]): binds

Substance: CD8α-P2A-CD8β (exogenous CD8α and CD8β of CD8 Construct 2 / CD8 Product 2) (from UniProt P01732 22-235; P10966 22-210) (receptor)
- binding (LCK [3]): binds
